Our source for the binding values is paper PMC6524969, “A nanobody-based molecular toolkit provides new mechanistic insight into clathrin-coat initiation” (eLife, 2019).

Chains of the proteins cited; added tags and fusions are not shown.
UniProt Q0JRZ9: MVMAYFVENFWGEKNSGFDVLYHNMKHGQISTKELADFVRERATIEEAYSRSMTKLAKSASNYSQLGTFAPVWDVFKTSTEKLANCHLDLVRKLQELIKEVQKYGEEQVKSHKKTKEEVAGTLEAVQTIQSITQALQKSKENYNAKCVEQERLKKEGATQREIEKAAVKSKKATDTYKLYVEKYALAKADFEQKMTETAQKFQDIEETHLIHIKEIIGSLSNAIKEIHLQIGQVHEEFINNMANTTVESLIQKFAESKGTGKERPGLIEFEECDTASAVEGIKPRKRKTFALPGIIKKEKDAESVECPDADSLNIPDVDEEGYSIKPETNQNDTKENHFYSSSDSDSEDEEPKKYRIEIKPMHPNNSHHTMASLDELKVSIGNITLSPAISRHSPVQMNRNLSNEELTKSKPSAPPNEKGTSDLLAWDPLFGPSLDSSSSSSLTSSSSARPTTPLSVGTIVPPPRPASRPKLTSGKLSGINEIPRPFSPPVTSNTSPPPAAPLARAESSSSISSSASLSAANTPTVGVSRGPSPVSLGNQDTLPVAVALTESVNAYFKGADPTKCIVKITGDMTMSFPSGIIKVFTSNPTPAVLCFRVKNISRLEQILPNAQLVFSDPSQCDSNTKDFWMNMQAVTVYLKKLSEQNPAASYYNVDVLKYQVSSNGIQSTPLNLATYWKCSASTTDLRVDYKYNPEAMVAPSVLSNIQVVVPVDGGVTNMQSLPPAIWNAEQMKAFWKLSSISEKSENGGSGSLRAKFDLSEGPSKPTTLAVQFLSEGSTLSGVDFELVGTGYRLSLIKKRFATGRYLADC

No constants are given. Whether binding was seen depends on the method and setting. Binding seen in cells or lysates may run through a third protein. Some entries that bind do so weakly or less than the wild type. For some of these results: Sequences can lack the tags named with a protein.

For assay [1], the target named is T1, EPS15R in K-562 cell lysate (human (endogenous in K-562)) (UniProt Q9UBC2).
T1 sequence: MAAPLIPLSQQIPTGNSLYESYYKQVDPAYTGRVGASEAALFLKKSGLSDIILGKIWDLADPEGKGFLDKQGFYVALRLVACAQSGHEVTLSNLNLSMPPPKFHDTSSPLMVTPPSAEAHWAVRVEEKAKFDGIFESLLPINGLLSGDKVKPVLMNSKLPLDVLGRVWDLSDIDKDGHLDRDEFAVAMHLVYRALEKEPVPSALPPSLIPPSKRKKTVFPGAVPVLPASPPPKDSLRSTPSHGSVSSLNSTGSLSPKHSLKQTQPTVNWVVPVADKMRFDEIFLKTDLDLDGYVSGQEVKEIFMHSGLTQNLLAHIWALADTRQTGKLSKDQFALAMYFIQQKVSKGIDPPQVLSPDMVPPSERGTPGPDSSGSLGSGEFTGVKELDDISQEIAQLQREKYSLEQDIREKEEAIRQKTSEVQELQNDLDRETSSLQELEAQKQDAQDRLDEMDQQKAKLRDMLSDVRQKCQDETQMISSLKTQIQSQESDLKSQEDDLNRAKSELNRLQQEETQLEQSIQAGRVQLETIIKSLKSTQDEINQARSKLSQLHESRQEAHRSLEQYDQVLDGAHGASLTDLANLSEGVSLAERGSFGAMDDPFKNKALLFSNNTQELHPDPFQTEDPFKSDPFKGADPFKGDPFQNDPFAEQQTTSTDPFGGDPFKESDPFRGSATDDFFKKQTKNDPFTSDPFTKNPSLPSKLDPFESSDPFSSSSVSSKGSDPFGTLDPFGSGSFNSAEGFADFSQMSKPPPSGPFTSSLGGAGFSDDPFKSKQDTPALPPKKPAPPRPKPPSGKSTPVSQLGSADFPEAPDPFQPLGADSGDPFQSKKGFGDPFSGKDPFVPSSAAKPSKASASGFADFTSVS
The experiment in a line: co-IP; partners co-recovered with endogenous EPS15/R that was immobilised through its EH domains by His6-Nb E_142 on Ni-NTA-agarose; immunoblots. Background: Immunoblotting shows a protein as a band on a membrane.

Assay [2] addresses T2, native EPS15 in K-562 cell lysate (human (endogenous in K-562)) (UniProt P42566).
T2 sequence: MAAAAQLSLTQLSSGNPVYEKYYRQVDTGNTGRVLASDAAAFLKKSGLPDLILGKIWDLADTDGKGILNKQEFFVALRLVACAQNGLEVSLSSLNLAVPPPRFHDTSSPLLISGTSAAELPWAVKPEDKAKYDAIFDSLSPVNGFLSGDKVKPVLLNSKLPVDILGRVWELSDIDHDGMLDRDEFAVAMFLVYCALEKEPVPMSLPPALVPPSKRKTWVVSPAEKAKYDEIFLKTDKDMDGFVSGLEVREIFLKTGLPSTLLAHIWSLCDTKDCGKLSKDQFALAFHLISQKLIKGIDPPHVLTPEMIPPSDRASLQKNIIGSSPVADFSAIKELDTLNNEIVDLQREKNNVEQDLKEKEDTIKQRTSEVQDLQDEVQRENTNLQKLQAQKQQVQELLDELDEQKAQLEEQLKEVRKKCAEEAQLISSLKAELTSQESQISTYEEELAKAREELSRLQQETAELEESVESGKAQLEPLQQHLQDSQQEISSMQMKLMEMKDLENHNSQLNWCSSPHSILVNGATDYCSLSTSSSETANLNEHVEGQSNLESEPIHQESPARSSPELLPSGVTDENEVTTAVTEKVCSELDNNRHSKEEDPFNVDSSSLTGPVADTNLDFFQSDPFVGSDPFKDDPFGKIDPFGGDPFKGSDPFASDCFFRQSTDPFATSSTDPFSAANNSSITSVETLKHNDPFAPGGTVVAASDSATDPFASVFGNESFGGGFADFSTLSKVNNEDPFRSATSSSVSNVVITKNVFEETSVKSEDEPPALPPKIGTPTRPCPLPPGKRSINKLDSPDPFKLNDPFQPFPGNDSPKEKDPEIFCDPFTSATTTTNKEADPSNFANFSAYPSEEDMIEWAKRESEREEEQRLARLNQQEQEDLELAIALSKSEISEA
Described as above.

The target in assay [3] is T3, GST-EPS15 (1-314) (human) (UniProt P42566).
T3 sequence: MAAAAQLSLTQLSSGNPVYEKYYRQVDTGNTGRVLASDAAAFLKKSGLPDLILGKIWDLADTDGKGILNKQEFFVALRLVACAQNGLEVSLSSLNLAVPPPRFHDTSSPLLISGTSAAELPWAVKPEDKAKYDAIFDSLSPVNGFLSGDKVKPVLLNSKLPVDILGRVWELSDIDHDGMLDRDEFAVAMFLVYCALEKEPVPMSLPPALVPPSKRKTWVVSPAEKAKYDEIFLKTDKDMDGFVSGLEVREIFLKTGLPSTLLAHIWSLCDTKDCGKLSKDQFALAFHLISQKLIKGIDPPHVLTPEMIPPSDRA
The experiment in a line: pull-down; increasing amounts of GST-EPS15 (1-314) immobilised on glutathione-Sepharose; HeLa cell Triton X-100 lysate; 4°C, 60 min; immunoblots; only the target purified.

Assay [4] deals with T3, GST-EPS15 (1-314) (human). The experiment in a line: pull-down; 200 μg immobilised GST-EPS15 (1-314); HeLa lysate supplemented with equimolar (45 μg) or 5-fold molar excess (225 μg) Nb E_142; immunoblots of the partners; only the target purified.

For “FCHO2 (cytosolic, co-precipitated) (from UniProt Q0JRZ9 1-810)”, the binding result in assay [1] and in assay [2] was “binds” each time.

B1: FCHO1 (cytosolic, co-precipitated) (protein, UniProt O14526 1-889)
chain: MSYFGEHFWGEKNHGFEVLYHSVKQGPISTKELADFIRERATIEETYSKAMAKLSKLASNGTPMGTFAPLWEVFRVSSDKLALCHLELTRKLQDLIKDVLRYGEEQLKTHKKCKEEVVSTLDAVQVLSGVSQLLPKSRENYLNRCMDQERLRRESTSQKEMDKAETKTKKAAESLRRSVEKYNSARADFEQKMLDSALRFQAMEETHLRHMKALLGSYAHSVEDTHVQIGQVHEEFKQNIENVSVEMLLRKFAESKGTGREKPGPLDFEAYSAAALQEAMKRLRGAKAFRLPGLSRREREPEPPAAVDFLEPDSGTCPEVDEEGFTVRPDVTQNSTAEPSRFSSSDSDFDDEEPRKFYVHIKPAPARAPACSPEAAAAQLRATAGSLILPPGPGGTMKRHSSRDAAGKPQRPRSAPRTSSCAERLQSEEQVSKNLFGPPLESAFDHEDFTGSSSLGFTSSPSPFSSSSPENVEDSGLDSPSHAAPGPSPDSWVPRPGTPQSPPSCRAPPPEARGIRAPPLPDSPQPLASSPGPWGLEALAGGDLMPAPADPTAREGLAAPPRRLRSRKVSCPLTRSNGDLSRSLSPSPLGSSAASTALERPSFLSQTGHGVSRGPSPVVLGSQDALPIATAFTEYVHAYFRGHSPSCLARVTGELTMTFPAGIVRVFSGTPPPPVLSFRLVHTTAIEHFQPNADLLFSDPSQSDPETKDFWLNMAALTEALQRQAEQNPTASYYNVVLLRYQFSRPGPQSVPLQLSAHWQCGATLTQVSVEYGYRPGATAVPTPLTNVQILLPVGEPVTNVRLQPAATWNLEEKRLTWRLPDVSEAGGSGRLSASWEPLSGPSTPSPVAAQFTSEGTTLSGVDLELVGSGYRMSLVKRRFATGMYLVSC
For B1, the binding entry in assay [1] and in assay [2] was “binds” each time.

B2: HIV-1 Rev-binding protein (HRB), HeLa lysate (protein, UniProt P52594 1-562)
chain: MAASAKRKQEEKHLKMLRDMTGLPHNRKCFDCDQRGPTYVNMTVGSFVCTSCSGSLRGLNPPHRVKSISMTTFTQQEIEFLQKHGNEVCKQIWLGLFDDRSSAIPDFRDPQKVKEFLQEKYEKKRWYVPPEQAKVVASVHASISGSSASSTSSTPEVKPLKSLLGDSAPTLHLNKGTPSQSPVVGRSQGQQQEKKQFDLLSDLGSDIFAAPAPQSTATANFANFAHFNSHAAQNSANADFANFDAFGQSSGSSNFGGFPTASHSPFQPQTTGGSAASVNANFAHFDNFPKSSSADFGTFNTSQSHQTASAVSKVSTNKAGLQTADKYAALANLDNIFSAGQGGDQGSGFGTTGKAPVGSVVSVPSQSSASSDKYAALAELDSVFSSAATSSNAYTSTSNASSNVFGTVPVVASAQTQPASSSVPAPFGATPSTNPFVAAAGPSVASSTNPFQTNARGATAATFGTASMSMPTGFGTPAPYSLPTSFSGSFQQPAFPAQAAFPQQTAFSQQPNGAGFAAFGQTKPVVTPFGQVAAAGVSSNPFMTGAPTGQFPTGSSSTNPFL
In the case of B2, the binding result in assay [3] and in assay [4] was “binds” each time.

B3: clathrin assembly lymphoid myeloid leukemia protein (CALM), HeLa lysate (protein, UniProt Q13492 1-652)
chain: MSGQSLTDRITAAQHSVTGSAVSKTVCKATTHEIMGPKKKHLDYLIQCTNEMNVNIPQLADSLFERTTNSSWVVVFKSLITTHHLMVYGNERFIQYLASRNTLFNLSNFLDKSGLQGYDMSTFIRRYSRYLNEKAVSYRQVAFDFTKVKRGADGVMRTMNTEKLLKTVPIIQNQMDALLDFNVNSNELTNGVINAAFMLLFKDAIRLFAAYNEGIINLLEKYFDMKKNQCKEGLDIYKKFLTRMTRISEFLKVAEQVGIDRGDIPDLSQAPSSLLDALEQHLASLEGKKIKDSTAASRATTLSNAVSSLASTGLSLTKVDEREKQAALEEEQARLKALKEQRLKELAKKPHTSLTTAASPVSTSAGGIMTAPAIDIFSTPSSSNSTSKLPNDLLDLQQPTFHPSVHPMSTASQVASTWGDPFSATVDAVDDAIPSLNPFLTKSSGDVHLSISSDVSTFTTRTPTHEMFVGFTPSPVAQPHPSAGLNVDFESVFGNKSTNVIVDSGGFDELGGLLKPTVASQNQNLPVAKLPPSKLVSDDLDSSLANLVGNLGIGNGTTKNDVNWSQPGEKKLTGGSNWQPKVAPTTAWNAATMAPPVMAYPATTPTGMIGYGIPPQMGSVPVMTQPTLIYSQPVMRPPNPFGPVSGAQIQFM
As for B3, in assay [3], the binding result is recorded as “binds weakly”.
